The assay concerns the target RELA (NF-κB p65) (human (endogenous in HeLa)) (UniProt Q04206). Briefly: affinity purification with mass spectrometry; coIP-MS: anti-RELA antibody (or control rabbit IgG) on Protein A/G magnetic beads, 200 μl HeLa cell lysate (1 μg/μl), 60 min at room temperature, washes with IP lysis buffer, TBST and 50 mM Tris-HCl pH 8.0, on-bead trypsin digestion with or without 0.02% LMNG, DIA-LC-MS/MS; four biological replicates.

The chains behind the UniProt entries cited, without tags or fusion partners.
UniProt Q04206: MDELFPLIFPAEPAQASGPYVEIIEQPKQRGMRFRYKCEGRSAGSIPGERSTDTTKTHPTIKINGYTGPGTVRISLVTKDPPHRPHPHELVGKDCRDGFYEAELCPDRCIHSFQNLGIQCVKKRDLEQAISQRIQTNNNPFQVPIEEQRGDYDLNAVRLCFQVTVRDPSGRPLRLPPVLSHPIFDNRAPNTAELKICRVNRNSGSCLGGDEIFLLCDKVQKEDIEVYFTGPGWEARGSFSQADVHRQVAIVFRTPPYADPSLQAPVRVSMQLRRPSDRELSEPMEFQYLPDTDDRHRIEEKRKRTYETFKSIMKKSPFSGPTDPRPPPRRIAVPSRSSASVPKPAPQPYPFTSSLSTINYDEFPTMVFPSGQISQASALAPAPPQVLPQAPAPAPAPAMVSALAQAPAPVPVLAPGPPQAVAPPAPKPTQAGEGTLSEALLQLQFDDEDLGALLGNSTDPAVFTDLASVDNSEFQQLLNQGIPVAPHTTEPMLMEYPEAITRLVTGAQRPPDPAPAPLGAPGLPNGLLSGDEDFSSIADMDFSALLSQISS

These are yes or no findings as the source states them, for the method shown. Binding seen in cells or lysates may run through a third protein. Here binding means that the protein was enriched with, or labelled near, the bait; the list need not be complete.

B1: NFKBIE (protein, UniProt O00221 1-500)
chain: MNQRRSESRPGNHRLQAYAEPGKGDSGGAGPLSGSARRGRGGGGAIRVRRPCWSGGAGRGGGPAWAVRLPTVTAGWTWPALRTLSSLRAGPSEPHSPGRRPPRAGRPLCQADPQPGKAARRSLEPDPAQTGPRPARAAGMSEARKGPDEAEESQYDSGIESLRSLRSLPESTSAPASGPSDGSPQPCTHPPGPVKEPQEKEDADGERADSTYGSSSLTYTLSLLGGPEAEDPAPRLPLPHVGALSPQQLEALTYISEDGDTLVHLAVIHEAPAVLLCCLALLPQEVLDIQNNLYQTALHLAVHLDQPGAVRALVLKGASRALQDRHGDTALHVACQRQHLACARCLLEGRPEPGRGTSHSLDLQLQNWQGLACLHIATLQKNQPLMELLLRNGADIDVQEGTSGKTALHLAVETQERGLVQFLLQAGAQVDARMLNGCTPLHLAAGRGLMGISSTLCKAGADSLLRNVEDETPQDLTEESLVLLPFDDLKISGKLLLCTD
Turning to B1, the binding result is on record as “binds”.

B2: NFKBIB (protein, UniProt Q15653 1-356)
chain: MAGVACLGKAADADEWCDSGLGSLGPDAAAPGGPGLGAELGPGLSWAPLVFGYVTEDGDTALHLAVIHQHEPFLDFLLGFSAGTEYMDLQNDLGQTALHLAAILGETSTVEKLYAAGAGLCVAERRGHTALHLACRVGAHACARALLQPRPRRPREAPDTYLAQGPDRTPDTNHTPVALYPDSDLEKEEEESEEDWKLQLEAENYEGHTPLHVAVIHKDVEMVRLLRDAGADLDKPEPTCGRSPLHLAVEAQAADVLELLLRAGANPAARMYGGRTPLGSAMLRPNPILARLLRAHGAPEPEGEDEKSGPCSSSSDSDSGDEGDEYDDIVVHSSRSQTRLPPTPASKPLPDDPRPV
Regarding B2, the binding result is on record as “binds”.
